In article PMC8456201:
These are yes or no findings as the source states them, for the method shown. Some entries that bind do so weakly or less than the wild type.

Molecular target: insect cell purified His-AKT1, P31749
Experiment: pull-down; in vitro binding of insect cell purified PDK1 and His-AKT1; copper (5 uM) and TTM (20 uM) added as indicated; His-AKT1 pulled down on Ni-NTA beads; washed four times with NETN buffer with 500 mM NaCl; immunoblot; both purified
Details: remark: other sources report otherwise

B1: insect cell purified PDK1, O15530 1-556 (enzyme)
chain: MARTTSQLYDAVPIQSSVVLCSCPSPSMVRTQTESSTPPGIPGGSRQGPAMDGTAAEPRPGAGSLQHAQPPPQPRKKRPEDFKFGKILGEGSFSTVVLARELATSREYAIKILEKRHIIKENKVPYVTRERDVMSRLDHPFFVKLYFTFQDDEKLYFGLSYAKNGELLKYIRKIGSFDETCTRFYTAEIVSALEYLHGKGIIHRDLKPENILLNEDMHIQITDFGTAKVLSPESKQARANSFVGTAQYVSPELLTEKSACKSSDLWALGCIIYQLVAGLPPFRAGNEYLIFQKIIKLEYDFPEKFFPKARDLVEKLLVLDATKRLGCEEMEGYGPLKAHPFFESVTWENLHQQTPPKLTAYLPAMSEDDEDCYGNYDNLLSQFGCMQVSSSSSSHSLSASDTGLPQRSGSNIEQYIHDLDSNSFELDLQFSEDEKRLLLEKQAGGNPWHQFVENNLILKMGPVDKRKGLFARRRQLLLTEGPHLYYVDPVNKVLKGEIPWSQELRPEAKNFKTFFVHTPNRTYYLMDPSGNAHKWCRKIQEVWRQRYQSHPDAAVQ
How did the binding turn out when B1 was run?
Its binding is “binds”.
